From PMC3466176
Results are given in words; binding and its absence hold for the method and conditions named. In cells and extracts the contact can be indirect. Some binding calls cover weakened binding; strength is not graded here.

Amino acid sequences for entries named in this document (tags omitted).
UniProt Q9ZUB3: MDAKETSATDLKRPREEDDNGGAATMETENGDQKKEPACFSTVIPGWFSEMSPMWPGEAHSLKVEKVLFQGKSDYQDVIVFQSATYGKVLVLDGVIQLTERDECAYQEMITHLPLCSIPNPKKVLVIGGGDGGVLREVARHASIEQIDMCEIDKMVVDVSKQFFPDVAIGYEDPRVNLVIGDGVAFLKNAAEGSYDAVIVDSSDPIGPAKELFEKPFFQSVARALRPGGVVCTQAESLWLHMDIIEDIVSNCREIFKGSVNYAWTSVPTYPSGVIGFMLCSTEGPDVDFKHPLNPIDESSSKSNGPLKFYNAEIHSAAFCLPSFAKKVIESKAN
UniProt O48661: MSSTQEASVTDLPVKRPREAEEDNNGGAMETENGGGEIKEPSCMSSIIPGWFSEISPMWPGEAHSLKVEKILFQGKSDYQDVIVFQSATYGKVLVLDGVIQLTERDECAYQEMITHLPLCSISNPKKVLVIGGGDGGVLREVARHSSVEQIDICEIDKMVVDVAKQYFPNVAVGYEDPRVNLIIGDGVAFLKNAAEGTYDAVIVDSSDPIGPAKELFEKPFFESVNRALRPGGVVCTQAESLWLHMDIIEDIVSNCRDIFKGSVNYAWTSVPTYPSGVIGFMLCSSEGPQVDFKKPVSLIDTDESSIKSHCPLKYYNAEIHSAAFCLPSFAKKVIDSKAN
UniProt Q94BN2: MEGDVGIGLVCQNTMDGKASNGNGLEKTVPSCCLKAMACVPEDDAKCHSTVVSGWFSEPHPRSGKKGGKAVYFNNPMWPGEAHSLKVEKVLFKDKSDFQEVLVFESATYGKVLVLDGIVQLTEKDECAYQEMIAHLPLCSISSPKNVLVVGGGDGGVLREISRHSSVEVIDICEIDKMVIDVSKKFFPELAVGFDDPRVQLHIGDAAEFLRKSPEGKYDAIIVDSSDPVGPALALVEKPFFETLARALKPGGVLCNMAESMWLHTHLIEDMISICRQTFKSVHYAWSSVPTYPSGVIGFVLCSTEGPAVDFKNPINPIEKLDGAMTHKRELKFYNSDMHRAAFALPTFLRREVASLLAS

Tests used:
Test in all cases: split reporter; BiFC with YFP fragments 1-154 (pYFN43) and 154-240 (pYFC43); Agrobacterium co-infiltration with p19 into N. benthamiana leaves; epidermal cells viewed by confocal microscopy 3-4 days after infiltration
[1] = molecular target: spermidine synthase 1 (SPDS1), BiFC fusion in pYFN43 / pYFC43 (Arabidopsis thaliana) (UniProt Q9ZUB3)
[2] = molecular target: spermidine synthase 2 (SPDS2), BiFC fusion in pYFC43 (Arabidopsis thaliana) (UniProt O48661)
[3] = molecular target: spermine synthase (SPMS), BiFC fusion in pYFN43 / pYFC43 (Arabidopsis thaliana) (UniProt Q94BN2)

Row | Substance | binding [1] | binding [2] | binding [3]
1 | spermidine synthase 1 (SPDS1), BiFC fusion in pYFN43 / pYFC43 (from UniProt Q9ZUB3 1-334) (enzyme) | binds | binds | binds
2 | spermidine synthase 2 (SPDS2), BiFC fusion in pYFC43 (from UniProt O48661 1-340) (enzyme) | – | – | binds
3 | spermine synthase (SPMS), BiFC fusion in pYFN43 / pYFC43 (from UniProt Q94BN2 1-359) (enzyme) | – | – | binds
